Reference: patent US20250290131

System: Nb.BssSI
Test: enzyme reaction in vitro
Details: nicking followed by nick translation and QD labeling; NEB buffer 2, 16 C; purified recombinant protein; protein details: New England Biolabs; variant of HeLa genomic DNA

CTCGTG (double strand) [Nb.BssSI site in HeLa genomic DNA]
activity on this sequence: active

Construct, isoform or probe ends are uncertain for at least one entry.
